Literature values, collected in patent US5840324A, “Antiparasitic compositions” (Commonwealth Scientific and Industrial Organisation, priority 1993, dated 1998).

Settings: in vivo

COCC(=O)Nc1cc(Sc2ccccc2)ccc1N/C(=N\C(=O)OC)NC(=O)OC [febantel, 2'-[2,3-bis-(methoxycarbonyl)guanidino]-5'-phenylthio-2-methoxyacetanilide]
metabolism: metabolised to fenbendazole
